Results taken from PubChem BioAssay AID504467 (National Center for Advancing Translational Sciences (NCATS), 2011).
In all, about 330,000 compounds went through this assay and about 7,700 (2.3%) were called active. The inconclusive results got no clear call from the source; some entries with a clear call stand among them for comparison. Calls follow the shape of the dose curve; as a rule, active = well fitted inhibition curve with a large enough effect; inconclusive = small, poorly fitted or top-dose-only effect, or effect the other way; inactive = flat fitted curve, though single readings scatter. Potencies beside an inconclusive call are fits to weak or partial responses and may not hold up.

assay: qHTS screen for small molecules that inhibit ELG1-dependent DNA repair in human embryonic kidney (HEK293T) cells expressing luciferase-tagged ELG1; settings: HEK293T ELG1-luciferase reporter, luminescence, 16 h, DNA damage induced by 5-fluorouridine; series mostly up to 46.1 µM; also: nearly all actives have a fitted effect of over 55% in size
Outline: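 Quantitative HTS, concentration-response format. 2,000 cells/well co-treated with 5-fluorouridine and compound, 16 hr in 5% CO2 at 37 °C; ONE-Glo luminescence read after 30 min.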
Potency is read from the fitted curve at half-maximal effect.

Row | Structure (SMILES) | Potency
1 | COc1cc(/C=C/C(=O)Nc2ccc(OC)c(S(=O)(=O)N3CCOCC3)c2)ccc1OC(F)F | active: 10.3 µM
2 | COCCn1c(C)cc(C(=O)CSc2nc3ccccc3c(=O)n2Cc2ccco2)c1C | inconclusive: 2.31 µM [activator, partial curve]
3 | COc1ccc(/C=N/NC(=O)c2ccc(Br)cc2)cc1CN1CCOCC1 | inactive
4 | Cc1ccc(S(=O)(=O)NCC(=O)OCC(=O)c2cc(C)n(-c3ccccc3)c2C)cc1 | inconclusive: 18.4 µM [activator, single point]
5 | O=C(CN1CCN(C(=O)c2ccco2)CC1)Nc1cc(C(F)(F)F)ccc1Cl | inconclusive: 29.1 µM [inhibitor, single point]
6 | O=c1[nH]c2ccccc2c(O)c1Cc1ccccc1 | inconclusive: 10.3 µM [inhibitor, partial curve, poor fit]
7 | COCCN1CC(C(=O)NCCc2nc(C)c(C)s2)CCC1=O (stereo not drawn) | inactive
8 | COc1ccc(NC(=O)c2cccnn2)cc1 | inconclusive: 14.6 µM [activator, partial curve]
9 | CCOC(=O)CNC(=O)c1sc(NC(=O)c2ccccc2F)nc1C | inconclusive: 5.17 µM [activator, partial curve]
10 | O=C(CC1OC(=O)c2ccccc21)Nc1cc(S(=O)(=O)N2CCOCC2)ccc1OCC(F)(F)F (stereo not drawn) | inactive
11 | CCCn1c2ccccc2c2cnn(CC(=O)NCCCN3CCN(c4ccccc4)CC3)c(=O)c21 | inactive
12 | Cc1cc(C)c(C)c(S(=O)(=O)N2CCN(Cc3nc4ccccc4[nH]3)CC2)c1C | inconclusive: 29.1 µM [inhibitor, single point]
13 | CCCCCC(=O)NNC1CC(=O)N(c2cccc(OCC)c2)C1=O (stereo not drawn) | inconclusive: 6.51 µM [activator, single point]
14 | CN(C)c1ccc(CN(C(=O)c2cc3ccccc3oc2=O)C2CCS(=O)(=O)C2)cc1 (stereo not drawn) | inconclusive: 16.4 µM [activator, partial curve]
15 | CCn1c(=N)n(CC(O)COc2ccc(C)cc2)c2ccccc21 (stereo not drawn) | inconclusive: 14.6 µM [inhibitor, single point]
16 | CC(=O)N1N=C(c2cccc(Cl)c2)OC1c1ccc(C(C)C)cc1 (stereo not drawn) | inconclusive: 20.6 µM [activator, single point]
17 | O=C(NC(=S)Nc1ccc(N2CCCCC2)cc1)c1cccs1 | inconclusive: 2.06 µM [activator, partial curve]
18 | C=CCn1c(NC(=O)c2ccc(C)cc2)nc2ccccc21 | inconclusive: 6.51 µM [activator, partial curve]
19 | O=C(NC1CCCCC1)C(c1ccc2ncccc2c1)N(Cc1ccccc1)C(=O)c1cccs1 (stereo not drawn) | inactive
20 | O=C(Nc1cccc(NC(=O)c2ccc(Br)cc2)c1)c1ccccc1 | inconclusive: 14.6 µM [activator, partial curve, poor fit]
21 | COC(=O)c1ccc2nc(NC(=O)C3CCCCC3)sc2c1 | inconclusive: 3.26 µM [activator, full curve]
22 | Cc1noc(NC(=O)c2ccc(Cl)cc2)c1Cl | inconclusive: 25.9 µM [activator, partial curve]

Nine entries from above, sorted by heavy-atom count, falling.
Row | Structure (SMILES) | Potency
1 | COc1cc(/C=C/C(=O)Nc2ccc(OC)c(S(=O)(=O)N3CCOCC3)c2)ccc1OC(F)F | active: 10.3 µM
4 | Cc1ccc(S(=O)(=O)NCC(=O)OCC(=O)c2cc(C)n(-c3ccccc3)c2C)cc1 | inconclusive: 18.4 µM [activator, single point]
12 | Cc1cc(C)c(C)c(S(=O)(=O)N2CCN(Cc3nc4ccccc4[nH]3)CC2)c1C | inconclusive: 29.1 µM [inhibitor, single point]
9 | CCOC(=O)CNC(=O)c1sc(NC(=O)c2ccccc2F)nc1C | inconclusive: 5.17 µM [activator, partial curve]
15 | CCn1c(=N)n(CC(O)COc2ccc(C)cc2)c2ccccc21 (stereo not drawn) | inconclusive: 14.6 µM [inhibitor, single point]
7 | COCCN1CC(C(=O)NCCc2nc(C)c(C)s2)CCC1=O (stereo not drawn) | inactive
18 | C=CCn1c(NC(=O)c2ccc(C)cc2)nc2ccccc21 | inconclusive: 6.51 µM [activator, partial curve]
6 | O=c1[nH]c2ccccc2c(O)c1Cc1ccccc1 | inconclusive: 10.3 µM [inhibitor, partial curve, poor fit]
22 | Cc1noc(NC(=O)c2ccc(Cl)cc2)c1Cl | inconclusive: 25.9 µM [activator, partial curve]

Additional entries:

Row | Structure (SMILES) | Potency
23 | COc1ccccc1NC(=S)NC(=O)c1c(-c2ccccc2Cl)noc1C | inactive
24 | CCCNC(=O)c1ccc(C2SCC(=O)N2CCc2ccccc2)cc1 (stereo not drawn) | inconclusive: 20.6 µM [inhibitor, partial curve, poor fit]
25 | NNC(=O)CCCNc1ncc(C(F)(F)F)cc1Cl | inactive
26 | COc1ccc(C(=O)NCCNc2nc3cc(C)c(C)cc3cc2C)cc1 | inactive
27 | COc1ccc(-c2cc(C(F)(F)F)nc(N3CCN(C)CC3)n2)cc1OC | inconclusive: 29.1 µM [inhibitor, single point]
28 | O=C(Nc1nnc(-c2cccs2)o1)c1cccc(C(F)(F)F)c1 | inactive
29 | COc1cccc(-c2csc(N3CCN(CC(=O)Nc4ccc5c(c4)OCO5)CC3)n2)c1 | inconclusive: 29.1 µM [inhibitor, single point]
30 | CCOc1ccccc1C(=O)Nc1nnc(SCC(=O)Nc2cc(C)on2)s1 | inconclusive: 18.3 µM [activator, single point]
31 | CC(C)(C)c1nnc(N/N=C/c2ccccc2O)n(N)c1=O | active: 20.6 µM
32 | CCC(C)C(NC(=O)C1CCC(C)CC1)C(=O)NC1CCN(Cc2ccccc2)CC1 (stereo not drawn) | inactive
33 | O=C(O)C1C2C=CC(O2)C1C(=O)NC1CCCc2ccccc21 (stereo not drawn) | inconclusive: 13 µM [activator, partial curve, poor fit]
34 | N#Cc1c2c(c(NCCOCCO)n3c1nc1ccccc13)CCCC2 | inconclusive: 18.3 µM [inhibitor, single point]
35 | CSCCC(NC(=O)OC(C)(C)C)C(=O)Oc1ccc2c(=O)c(-c3ccc4c(c3)OCCO4)coc2c1 (stereo not drawn) | inconclusive: 3.66 µM [activator, full curve]
36 | N#CC1=C(N)NC(SCC(=O)Nc2ccc(Br)cc2)=C(C#N)C12CCCCC2 | active: 23.1 µM
37 | Cc1ccc(-c2cc(C(=O)Nc3ccc(S(=O)(=O)Nc4nc(C)cc(C)n4)cc3)c3ccccc3n2)cc1 | inactive
38 | CC(C)(C)c1ccc(-c2nnc(SCC(=O)NC3CCS(=O)(=O)C3)n2N)cc1 (stereo not drawn) | inconclusive: 29.1 µM [activator, single point]
39 | CC(C)(C)NS(=O)(=O)c1ccc(NC(=O)c2cc(-c3ccccc3)nc3ccccc23)cc1 | active: 23.1 µM
40 | CC(OC(=O)C1CCN(c2ccc(C(F)(F)F)cn2)CC1)C(=O)Nc1cccc([N+](=O)[O-])c1 (stereo not drawn) | inconclusive: 29.1 µM [inhibitor, single point]
41 | CC(=O)c1ccc(NC(=O)CSc2ccc(-c3ccc(-n4cccn4)cc3)nn2)cc1 | inconclusive: 3.66 µM [activator, partial curve, poor fit]
42 | COc1ccc(/C=C/c2c([N+](=O)[O-])c(=O)n(C)c(=O)n2C)cc1O | inconclusive: 29.1 µM [inhibitor, partial curve, poor fit]
43 | CCOC(=O)c1c(C)[nH]c2ccc(O)cc12 | inconclusive: 18.4 µM [activator, single point]
